Values joined by “and” are separate entries in the source; they are usually repeats but may differ in a detail not shown here. Equal entries are not always repeated. About 3,700 (0.93%) of roughly 400,000 compounds were called active. Inconclusive means that the source gave no clear call. Such entries were picked first, then a sample of the others. Calls follow the shape of the dose curve; as a rule, active = well fitted inhibition curve with a large enough effect; inconclusive = small, poorly fitted or top-dose-only effect, or another doubt; inactive = no such curve, though single readings can be large or run the other way. Where the call is inconclusive, the potency comes from a doubtful curve fit.
These compounds were tested against Vitamin D3 receptor (Homo sapiens) (UniProt P11473) (assay: Inhibitors of the vitamin D receptor (VDR): qHTS). Conditions: VDR-SRC2-3 peptide fluorescence polarization, 2 h; max response, negative = inhibition: stronger effect = lower value.
Procedure, shortened: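 Fluorescence polarization assay measuring small-molecule disruption of VDR binding to the coregulator peptide SRC2-3. Compounds were pin-transferred (23 nl) into the reagent mix and incubated 2 h at room temperature before reading.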
% is scaled to controls: 0 for no effect and ±100 for the full control effect; potency is read from the fitted curve at half-maximal effect.

Protein sequences, listed by entry. Tags and fused reporters are not part of them. Lines headed by an entry give the natural chain unless they say otherwise; changes in a name come on top.
UniProt P11473: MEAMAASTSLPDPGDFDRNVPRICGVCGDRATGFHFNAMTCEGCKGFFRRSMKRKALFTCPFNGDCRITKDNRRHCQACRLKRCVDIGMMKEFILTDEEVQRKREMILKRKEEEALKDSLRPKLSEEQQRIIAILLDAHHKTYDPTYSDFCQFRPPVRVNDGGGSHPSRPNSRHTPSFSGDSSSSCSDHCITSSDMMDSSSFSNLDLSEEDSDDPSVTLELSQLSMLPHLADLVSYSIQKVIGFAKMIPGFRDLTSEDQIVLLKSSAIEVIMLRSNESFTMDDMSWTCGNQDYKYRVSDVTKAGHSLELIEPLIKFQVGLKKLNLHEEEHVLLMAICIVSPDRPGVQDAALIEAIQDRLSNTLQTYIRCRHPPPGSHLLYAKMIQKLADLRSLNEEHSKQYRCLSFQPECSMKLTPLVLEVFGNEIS

Potency, inconclusive:
Nc1sc2c(c1C(=O)NC1CCS(=O)(=O)C1)CCCC2 (stereo not drawn) 79.4 µM [inhibitor, partial curve], CCOC(=O)/C(C#N)=C1\CCCN1CC(N)=S 89.1 µM [inhibitor, single point], Cc1c(NS(=O)(=O)c2ccc(Cl)c(C(=O)OCC(=O)NCc3ccco3)c2)c(=O)n(-c2ccccc2)n1C 70.8 µM [inhibitor, partial curve], CCCCCCNC(=O)N[C@@H](C(=O)NCCC[C@H]1CN2C(=NC[C@@H]2Cc2ccccc2)N1CCc1cccc(OC)c1)C(C)C 63.1 µM [inhibitor, partial curve, poor fit], CC(C)[C@H](NC(=O)C1CC(=O)N(c2ccc(F)cc2)C1)C(=O)N1CCCCC1 (stereo partly drawn) 22.4 µM [inhibitor, partial curve, poor fit], CCN(CC)CCCN1C=C2C(=O)C(C)(OC(=O)CCC(=O)OC)C(=O)C(Br)=C2C=C1c1ccc(OC)cc1 (stereo not drawn) 89.1 µM [inhibitor, partial curve, poor fit], O=c1[nH]c(=O)n(-c2ccccc2)c2c1C(C(F)(F)F)(C(F)(F)F)N=C(C1CCCCC1)N2 89.1 µM [inhibitor, partial curve, poor fit], COc1ccc(NC(=O)COc2ccc(C(=O)c3ccc(F)cc3)cc2)cc1S(N)(=O)=O 70.8 µM [inhibitor, partial curve], Nc1c(C(=O)NCc2cccnc2)sc(=S)n1-c1ccccc1 63.1 µM [inhibitor, partial curve, poor fit], O=C(O)c1sccc1Oc1ccc(NS(=O)(=O)c2ccc(Cl)cc2)cc1 100 µM [inhibitor, single point], CCCCC1(C(=O)OCC)NC(c2ccc(O)cc2)C2C(=O)N(c3ccccc3)C(=O)C21 (stereo not drawn) 31.6 µM [inhibitor, partial curve, poor fit], N#CC(C#N)=Cc1ccc(OC(=O)c2ccccn2)cc1 89.1 µM [inhibitor, single point], O=C(O)c1ccc(-c2ccccc2)[nH]c1=O 20 µM [inhibitor, partial curve, poor fit], O=[N+]([O-])c1ccc(Cl)c(/C=N/n2c(COc3ccccc3)n[nH]c2=S)c1 89.1 µM [inhibitor, single point], COc1ccc(/C=N/Nc2cc(N3CCCC3)nc(N3CCCC3)n2)cc1 8.91 µM [inhibitor, partial curve, poor fit], CC(C)Oc1ccc(C2CCC(=O)NC2=O)cc1 (stereo not drawn) 100 µM [inhibitor, single point], Cc1cc(C)nc(S/C=C/C(=O)c2ccccc2F)n1 8.91 µM [inhibitor, full curve, poor fit], CC1CCN(S(=O)(=O)c2ccc3c(c2)CC(C)N3C(=O)C2CCC2)CC1 (stereo not drawn) 20 µM [inhibitor, partial curve, poor fit], NS(=O)(=O)c1ccc(N=Nc2c[nH]c(=O)c(O)c2)cc1 79.4 µM [inhibitor, partial curve, poor fit], COC(=O)c1ccc(/C=N/NS(=O)(=O)c2cc(C)ccc2C)cc1 89.1 µM [inhibitor, single point], CN(C)[C@@H]1C(=O)C(C(N)=O)=C(O)[C@]2(O)C(=O)C3=C(O)c4c(O)ccc(Cl)c4[C@H](O)[C@H]3C[C@@H]12 50.1 µM [inhibitor, partial curve]

Potency, active:
Cc1ccc(NC(=O)C(=Cc2ccc(C(=O)O)cc2)C(=O)Nc2ccc(C)cc2C)c(C)c1 25.1 µM, O=C(CCS(=O)(=O)c1nc(-c2cccs2)cc(C(F)(F)F)n1)Nc1cc(Br)ccc1O 11.2 µM, Cc1[nH]n(-c2ncc(-c3ccc(Cl)cc3)s2)c(=O)c1C(c1ccc(Cl)cc1)C(C#N)C#N (stereo not drawn) 50.1 µM, O=C(c1ccc(Cl)cc1)C(CN1CCCCC1)c1ccccc1 (stereo not drawn) 20 µM, Cc1cnc(CNc2cc(-c3ccoc3)ncn2)cn1 44.7 µM, O=C(Oc1ccc(Br)cc1C(=O)/C=C/c1ccccc1F)c1ccco1 44.7 µM, O=C(O)C(c1ccccc1)N1C(=O)/C(=C\c2ccc(-c3cccc(Cl)c3)o2)SC1=S (stereo not drawn) 79.4 µM

Max response, negative = inhibition, inactive:
COC(=O)CNC(=O)C1CCN(S(=O)(=O)c2cccc3nsnc23)CC1 0.351% and -5.52%, O=C(CN1C(=O)COc2ccc(Cl)cc21)Nc1cccc(F)c1 8.55%, CC1=C(C(=O)Nc2ccc(C)cc2C)C(c2ccc([N+](=O)[O-])cc2)n2ncc(C(=O)Nc3ccc(F)cc3)c2N1 (stereo not drawn) -4.52%, Cc1ccc(C(=O)N(C)Cc2nc3ccccc3c(=O)[nH]2)cc1NC(=O)c1ccco1 15.4%, CCn1c(C)[n+](CCOCC[n+]2c(C)n(CC)c3cc(Cl)c(Cl)cc32)c2cc(Cl)c(Cl)cc21 -4.13%, CC(C)c1ccc(NC(=O)CSc2nc(=O)n(Cc3ccccn3)c3c2CCC3)cc1 3.55%, O=C(O)c1cccc(S(=O)(=O)NCCC(c2ccccc2)c2ccccc2)c1 4.27%, O=C(C1CCC(Cn2c(=O)c3sccc3n(Cc3ccccc3)c2=O)CC1)N1CCCCC1 (stereo not drawn) 2.11%, CCOc1ccc(NC(=O)CCc2nc3cccnc3n2-c2ccccc2)cc1 9.68%, CC(C)N(C)C1=CC(=O)C(N(C)C(C)C)=CC1=O -20.6%, COc1cc(NC(=S)Nc2ccc(OC(F)F)cc2)cc(OC)c1 4.01%, c1ccc(C[n+]2ccc3ccccc3c2)cc1 -13%, C/C(=N\NC(=O)c1csc2ccccc12)c1ccc(O)cc1 1.93%, O=S1(=O)CCOCCCN1Cc1ccccc1Br -0.0937%, COc1ccccc1/C=C/C=N/N1CCN(Cc2ccc(Cl)cc2)CC1 -18.5%

Source: PubChem BioAssay AID504847 (National Center for Advancing Translational Sciences (NCATS), 2011)
